Reference: PubChem BioAssay AID1439 (NMMLSC, 2008)
Screen size: about 220,000 compounds; about 770 (0.35%) were called active. This list was built around the results that the source calls inconclusive (neither active nor inactive); the mix of calls is not that of the screen. No stated cut-off is given here; in the data, active means binding response below about 49% or above about 150%; inconclusive means no clear call, values can overlap the other calls; inactive means in between.

Amino acid sequences for entries named in this document (tags omitted).
UniProt P09471, whole entry, looked up: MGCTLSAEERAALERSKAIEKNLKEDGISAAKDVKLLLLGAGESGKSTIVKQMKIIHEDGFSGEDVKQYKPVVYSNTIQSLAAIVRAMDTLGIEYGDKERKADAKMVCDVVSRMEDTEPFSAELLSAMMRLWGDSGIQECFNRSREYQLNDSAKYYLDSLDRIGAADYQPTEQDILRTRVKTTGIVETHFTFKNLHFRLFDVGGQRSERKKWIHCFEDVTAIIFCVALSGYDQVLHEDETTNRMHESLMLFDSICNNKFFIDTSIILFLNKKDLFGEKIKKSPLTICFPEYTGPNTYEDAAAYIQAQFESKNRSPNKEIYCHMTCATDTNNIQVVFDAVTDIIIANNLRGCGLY

What follows are compounds tested against Guanine nucleotide-binding protein G(o) subunit alpha (Homo sapiens) (UniProt P09471) (assay: RGS7-Galphao binding modulators, primary screen, biochemical, multiplexed bead flow cytometry (AID 1439;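 further: fluorescent Galphao held in activated GDP-AlF4 state binding bead-coupled RGS7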)). Conditions: at 10 µM, actives lie on both sides.
In the case of C[C@@H]1CC=C[C@H]2[C@H]1C(=O)N(Cc1ccccc1)[C@H]2c1ccc(-c2ccc(F)cc2)cc1F, the binding response (% of control) is reported as inconclusive: 106%. In the case of COCCSc1ccccc1C(=O)N1CCN(c2ccccc2)CC1, the binding response (% of control) is reported as inconclusive: 119%. With Cc1c(C(=O)NC(=S)Nc2ccc(N3CCOCC3)cc2)cccc1[N+](=O)[O-] the binding response (% of control) was inactive: 109%. In the case of O=C(NC(=S)Nc1ccc(N2CCOCC2)cc1)c1cncc(Br)c1, the binding response (% of control) is reported as inactive: 91.8%. In the case of CNC(=S)n1cnc(N)n1, the binding response (% of control) is reported as inconclusive: 103%. In the case of Nc1cccc(C(=O)OCC(=O)NC2CCCc3ccccc32)c1 (stereo not given), the binding response (% of control) is reported as inconclusive: 97.1%. With CCOCCCn1c(=NC(=O)c2cccs2)c(C#N)cc2c(=O)n3cccc(C)c3nc21 the binding response (% of control) was inconclusive: 102%. For O=S(=O)(c1ccccc1)n1cc(-c2ccccn2)c(N2CCOCC2)n1, the binding response (% of control) was inconclusive: 87%. For OCC1CCCC(n2cnc3c(=S)nc[nH]c32)O1 (stereo not given), the binding response (% of control) was inconclusive: 96.3%. For CCCCC1=CC2=CC(=O)C(C)(OC(=O)CC)C(=O)C2=CN1CCc1ccc(Br)cc1 (stereo not given), the binding response (% of control) was inconclusive: 120%. N#CC(C#N)=NNc1ccc([N+](=O)[O-])cc1 was tested, and the binding response (% of control) was inconclusive: 122%. With CC(C)c1ccc(N2CC(C)(C)C2=O)cc1 the binding response (% of control) was inactive: 96.5%. With COc1ccc(CN2CCN(c3cccc(C)c3C)CC2)cc1OC the binding response (% of control) was inactive: 98.7%. In the case of Cc1cc(C(=O)N2CCN(CCc3ccccc3)CC2)no1, the binding response (% of control) is reported as active: 224% [activator]. CCCCNC(=O)N(CC)c1c(N)n(Cc2ccccc2)c(=O)[nH]c1=O was tested, and the binding response (% of control) was inconclusive: 111%. For Nc1nc(N2CCN(c3cccc(Cl)c3)CC2)n[nH]1, the binding response (% of control) was inconclusive: 94.8%. For COc1cc(C(F)(F)F)c(C(=O)N(C)Cc2ccc(Cl)c(Cl)c2)cn1, the binding response (% of control) was inconclusive: 127%. CC1=NN(C(C#N)c2ccc(F)cc2)C(C)(C)C1 (stereo not given) was tested, and the binding response (% of control) was active: 43.6%. CC(C)(C)c1ccc(Oc2ccc(NC(=O)C3CC=CCC3C(=O)O)cc2)cc1 (stereo not given) was tested, and the binding response (% of control) was inconclusive: 91.2%. In the case of Cc1cc(OCC(=O)Nc2ccncc2)ccc1[N+](=O)[O-], the binding response (% of control) is reported as inconclusive: 89%. In the case of COc1ccc(-c2nc[nH]c2[N+](=O)[O-])cc1, the binding response (% of control) is reported as inconclusive: 106%. For Oc1[nH]c2ccccc2c1N=Nc1ccccc1, the binding response (% of control) was inconclusive: 102%. For Cc1ccc(C(=O)NCC(=O)OCC(=O)NC(C)c2ccccc2)s1 (stereo not given), the binding response (% of control) was inconclusive: 97.3%. With COc1ccc2nc(SCC(=O)C(C)(C)C)[nH]c2c1 the binding response (% of control) was inconclusive: 126%. With COC(=O)c1ccc(CN2C(=O)NC3(CCC(C)CC3)C2=O)cc1 (stereo not given) the binding response (% of control) was inconclusive: 99.5%. Cc1onc(-c2c(Cl)cccc2Cl)c1C(=O)c1ccc(F)cc1 was tested, and the binding response (% of control) was inconclusive: 35.7%. CCSc1nc(NCCN(C)C)c2c3c(sc2n1)COC(C)(CC)C3 (stereo not given) was tested, and the binding response (% of control) was inconclusive: 65.5%. For CCN1CCN(Cc2ccc(NC(=O)c3cc(NC(=O)c4cc(-c5ccc(OC)cc5)n[nH]4)cc(OC)c3)cc2C(F)(F)F)CC1, the binding response (% of control) was inconclusive: 91.5%. With CCCCNc1c(N)n(CC(C)C)c(=O)[nH]c1=O the binding response (% of control) was inconclusive: 90.9%. For C/C=C\C(=O)Nc1cccc(C2=NOC3(C2)C[C@@H](C(N)=O)N(C(=O)CC(c2ccccc2)c2ccccc2)C3)c1 (stereo not given in full), the binding response (% of control) was inconclusive: 108%. For CC(NS(=O)(=O)c1ccccc1)C(=O)NCCc1ccccn1 (stereo not given), the binding response (% of control) was inconclusive: 97.3%. With CN(Cc1nccs1)C(=O)CC1C(=O)NCCN1Cc1ccc(-c2ccccc2)cc1 (stereo not given) the binding response (% of control) was inconclusive: 58.9%. Cc1ccc2c(c1)NC(=O)C(CC(=O)NCc1ccc(F)cc1)O2 (stereo not given) was tested, and the binding response (% of control) was inactive: 104%. With CC(C)CC1(C)NC(=O)N(CC(=O)Nc2cccc(S(=O)(=O)N(C)c3ccccc3)c2)C1=O (stereo not given) the binding response (% of control) was inactive: 97.9%. With O=C(Nc1ccc(N2C(=O)C3C4C=CC(C4)C3C2=O)cc1Cl)c1cccs1 (stereo not given) the binding response (% of control) was inconclusive: 99.2%. In the case of CS(=O)(=O)c1ccc(C(=O)Nc2ccccc2Cl)cc1, the binding response (% of control) is reported as inconclusive: -176%. CCOc1ccc(N2C(=O)CC(SCCN)C2=O)cc1 (stereo not given) was tested, and the binding response (% of control) was inactive: 99.4%. In the case of CC1=CC(C)(C)Nc2ccc(Cc3ccc4c(c3)C(C)=CC(C)(C)N4)cc21, the binding response (% of control) is reported as inconclusive: 89.4%. In the case of CSc1nc(-c2ccco2)nn1C(=O)c1ccccc1Cl, the binding response (% of control) is reported as inconclusive: 85.3%. O=C(CSc1n[nH]c(=O)n1C1CC1)Nc1ccc(Cl)c(Cl)c1 was tested, and the binding response (% of control) was inconclusive: 139%. With COC(=O)C1=NN(c2ccc(C)cc2)C2C(=O)N(c3ccccc3OC)C(=O)C12 (stereo not given) the binding response (% of control) was inconclusive: 69.6%. For CC(C)(C)c1ccc(-c2ncccc2O)cc1, the binding response (% of control) was inactive: 93.9%. COc1ccc(C(=O)C2CCCN(Cc3cnc(N4CCOCC4)s3)C2)cc1F (stereo not given) was tested, and the binding response (% of control) was inconclusive: 77.6%. For O=[N+]([O-])c1cccc2ncccc12, the binding response (% of control) was inconclusive: 101%. In the case of Cc1cc(C(=O)N/N=C/c2c(C)[nH]c3ccccc23)n[nH]1, the binding response (% of control) is reported as inconclusive: 112%. For Cc1ccc(CNC(=O)C2CC(c3ccccc3C(F)(F)F)=NO2)cc1 (stereo not given), the binding response (% of control) was inconclusive: 107%. CN(C)C=Nc1nonc1-c1ccccc1 was tested, and the binding response (% of control) was inconclusive: 131%. For CCN(c1ccccc1)S(=O)(=O)c1ccc(OC)c(NS(=O)(=O)c2cccs2)c1, the binding response (% of control) was inconclusive: 88.4%. In the case of CCOC(=O)N1CCN(S(=O)(=O)c2ccc3[nH]c(=O)oc3c2)CC1, the binding response (% of control) is reported as inconclusive: 122%. In the case of O=C1/C(=C/c2ccncc2)CCc2ccccc21, the binding response (% of control) is reported as inconclusive: 113%. With O=C1NCCN/C1=C\C(=O)c1ccc(F)cc1 the binding response (% of control) was inconclusive: 92.2%. For Cc1nc(NCC2CCCO2)c2nnn(Cc3c(F)cccc3Cl)c2n1 (stereo not given), the binding response (% of control) was inconclusive: 106%. CCN(CC)CCOCCOC(=O)C(CC)(CC)c1ccccc1 was tested, and the binding response (% of control) was inconclusive: 103%. In the case of O=C(CN1C(=O)NC2(CCCCC2)C1=O)NCc1ccc2c(c1)OCO2, the binding response (% of control) is reported as inconclusive: 115%. For Cc1ccc(C(=O)n2ncn(C)c2=S)cc1, the binding response (% of control) was inconclusive: 103%. NS(=O)(=O)c1ccc(NC(=O)/C=C/c2cccs2)cc1 was tested, and the binding response (% of control) was inconclusive: 103%. For Clc1cccc(-c2nc(NCCN3CCOCC3)c3ccccc3n2)c1, the binding response (% of control) was inconclusive: 78.7%. With Cc1onc(-c2c(Cl)cccc2Cl)c1C(=O)ONC(=O)c1ccccc1 the binding response (% of control) was inconclusive: 68.7%. With Cc1ccc(S(=O)(=O)N2CCN(C(=O)c3n[nH]c(=O)c4ccccc34)CC2)cc1 the binding response (% of control) was inconclusive: 93.4%. With Cc1cc(C=O)c(C)n1-c1ccc(N2CCOCC2)c([N+](=O)[O-])c1 the binding response (% of control) was inconclusive: 92.8%. COc1cc(OC)cc(-c2cc3nc(C)c(CCC(=O)NCc4ccccc4)c(C)n3n2)c1 was tested, and the binding response (% of control) was inconclusive: 148%. In the case of COc1cc2c(cc1OC)CN(C(=O)c1cccc(S(=O)(=O)N(C)C)c1)CC2, the binding response (% of control) is reported as inconclusive: 47.9%. With Clc1ccc(CSc2nnc(-c3ccncc3)s2)cc1 the binding response (% of control) was inconclusive: 297%. In the case of Cc1ccc(/C=C2\SC(=S)N(CCCC(=O)Nc3ccc(O)cc3)C2=O)cc1, the binding response (% of control) is reported as inconclusive: 107%. Cn1c(SCc2cc(=O)[nH]c(C(C)(C)C)n2)nnc1C(F)(F)F was tested, and the binding response (% of control) was inconclusive: 103%. In the case of CCC1(C)CC2(CCCN(CCC(=O)c3ccccc3)C2)CCO1 (stereo not given), the binding response (% of control) is reported as inconclusive: 120%. Cn1c(SCC(=O)Nc2sccc2C(N)=O)nnc1-c1ccncc1 was tested, and the binding response (% of control) was inconclusive: 104%. O=C(N/N=C/c1ccccn1)c1c[nH]c2ccccc12 was tested, and the binding response (% of control) was inconclusive: 142%. In the case of COc1ccc(N2CCC(CNC(=S)Nc3cc(C)ccc3C)C2)cc1 (stereo not given), the binding response (% of control) is reported as inconclusive: 115%. In the case of CCCCNC(=O)C(=O)NCc1ccncc1, the binding response (% of control) is reported as inconclusive: 46.1%. In the case of CCOC(=O)C1=C(O)C(=O)N(c2ccccc2)C1c1cccc([N+](=O)[O-])c1 (stereo not given), the binding response (% of control) is reported as inconclusive: 77.4%. With C=CCN(CC=C)C(=O)COC(=O)c1ccc(Sc2ncn[nH]2)c([N+](=O)[O-])c1 the binding response (% of control) was inconclusive: 90.3%. O=C(Cc1cccs1)N/N=C/C=C/c1ccccc1[N+](=O)[O-] was tested, and the binding response (% of control) was inconclusive: 95.8%. With COc1ccc(C(=O)NC(=S)NNC(=O)[C@H]2C[C@@H]2c2ccccc2)cc1OC the binding response (% of control) was inconclusive: 136%. Cc1cc(Nc2ccccc2)c2c([N+](=O)[O-])ccc(C)c2n1 was tested, and the binding response (% of control) was inactive: 98.3%. In the case of O=C(O)c1cc2nccc(-c3ccco3)n2n1, the binding response (% of control) is reported as inconclusive: 119%. In the case of Clc1ccc(CNc2ccc(CNc3ncn[nH]3)cc2)c(Cl)c1, the binding response (% of control) is reported as inconclusive: 83.9%. CCOc1ccc(OCC)c(NC(=O)CN2CCN(c3cccc(C)c3)CC2)c1 was tested, and the binding response (% of control) was inactive: 99.9%. For CCN(CC)C(=O)Cn1ccc(NC(C)=O)nc1=O, the binding response (% of control) was inconclusive: 101%. With Cc1ccc(S(=O)(=O)N2CCOCC2)cc1NC(=O)COC(=O)c1ccc2c(c1)OCCO2 the binding response (% of control) was inconclusive: 115%. In the case of Cc1ccc(-c2nn(-c3ccccc3)cc2C2CC(c3ccccc3)=NN2C(=O)CCC(=O)O)cc1 (stereo not given), the binding response (% of control) is reported as inconclusive: 75.3%. For COc1cc(O)c(C(C)=O)c(CC(=O)O)c1, the binding response (% of control) was inconclusive: 72.6%. O=C1c2ccsc2SCCN1Cc1c(Cl)cccc1Cl was tested, and the binding response (% of control) was inactive: 98.9%. For Cn1ncc2c(=O)n(CC(=O)NC34CC5CC(CC(C5)C3)C4)cnc21, the binding response (% of control) was inactive: 122%. For COc1cccc(/C=N/NC(=O)c2cnccn2)c1OC, the binding response (% of control) was inconclusive: 134%. For CCC1=C(OC(=O)N(CC)CC)N2C(=O)OC(=NCCc3c[nH]c4ccccc34)[C@]2(C)[C@H]2C1=CC[C@H]1C(=O)N(C)C(=O)[C@H]12, the binding response (% of control) was inconclusive: 104%. With Cc1ccccc1NC(=O)c1cn2c(nc3ccccc32)c(C#N)c1C the binding response (% of control) was inconclusive: 124%. For Cc1nc(-c2cccnc2)sc1C(=O)N/N=C/c1ccccc1Cl, the binding response (% of control) was inconclusive: 103%. With O=C(CCc1nc2ccccc2n1-c1ccccc1)NCCO the binding response (% of control) was inactive: 97.6%. In the case of COc1ccc(/C=N/n2c(C)nc3c([nH]c4ccccc43)c2=O)cc1CN1CCCC(C)(C)C1, the binding response (% of control) is reported as inconclusive: 102%.
